Experimental data from EP1864995B1 (UNIVERSIDAD DEL PAIS VASCO-EUSKAL HERRIKO UNIBERSITATEA, priority 2004, dated 2010).

Experiment: general procedure: solution-phase peptide synthesis; EDCI/HOBT (fragment coupling); HATU/HOAT/DIPEA (cyclisation)
Conditions: trifluoroacetate salt

## CBZ-Asp(O^tBu)-(beta-Lactam)-Arg(PBF)-Gly-OBn
Coupling step
  step yield: 82%

## PEPTIDE1{R.G.D.[bLac3R]}$PEPTIDE1,PEPTIDE1,1:R1-4:R2$$$V2.0
Whole synthesis, overall
  crude yield: 17%

Strings that start with PEPTIDE1 are HELM notation: dots part the residues, brackets hold end groups and non-standard residues.
